According to article PMC9701038:
Results are given in words; binding and its absence hold for the method and conditions named. In cells and extracts the contact can be indirect. A result given as binding can be weak or reduced; the word gives no strength.

Target: T1, exogenous HOGA1 (human) (UniProt Q86XE5)
T1 sequence: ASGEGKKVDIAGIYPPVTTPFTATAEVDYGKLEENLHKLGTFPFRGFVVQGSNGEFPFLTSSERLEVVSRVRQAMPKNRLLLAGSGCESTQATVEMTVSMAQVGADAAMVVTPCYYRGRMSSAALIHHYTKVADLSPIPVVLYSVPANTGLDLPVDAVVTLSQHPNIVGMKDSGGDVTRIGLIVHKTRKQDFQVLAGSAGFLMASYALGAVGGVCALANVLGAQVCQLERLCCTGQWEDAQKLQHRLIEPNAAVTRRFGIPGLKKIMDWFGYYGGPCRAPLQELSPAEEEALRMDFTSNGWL
Experiment: co-IP; exogenous tagged HOGA1 and LARPs in PANC-1 cells; lysis in 0.5% NP-40 buffer (50 mM Tris-HCl pH 7.5, 150 mM NaCl, 0.3% NONIDET P-40); Flag beads 3 h at 4 C; SDS-PAGE and western blot

binding: binds
Substance: exogenous LARP7 (human)
